Results: publication PMC7819943, “Rice protein-binding microarrays: a tool to detect cis-acting elements near promoter regions in rice”
The list shows a part of the results.

Protein sequences, listed by entry. Tags and fused reporters are not part of them.
UniProt Q0JBA9, entry or part of it: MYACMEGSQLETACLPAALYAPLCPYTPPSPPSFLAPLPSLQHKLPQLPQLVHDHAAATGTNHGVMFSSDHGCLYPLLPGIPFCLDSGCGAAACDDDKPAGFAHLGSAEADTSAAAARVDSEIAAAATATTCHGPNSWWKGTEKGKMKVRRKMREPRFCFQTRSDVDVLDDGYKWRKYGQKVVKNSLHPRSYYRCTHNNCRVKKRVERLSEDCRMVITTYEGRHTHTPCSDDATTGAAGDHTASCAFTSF

Target: OsWRKY34 (Oryza sativa, UniProt Q0JBA9 1-250)
Test: protein-binding microarray (RPBM); PBS, 2% BSA, 51.3 ng/ul salmon testes DNA, 50 uM zinc acetate, 200 nM TF, 25 C, 1 h; high values mean tight binding
Conditions: protein: recombinant; tags: N-terminal polyhistidine and DsRed monomer fusion (pET32a); label: CyDye5-dUTP incorporated in the synthesized complementary strand; 3' TTTTT single-stranded linker to array surface; dsDNA, one strand shown
Outline: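 Polyhistidine-tagged DsRed fusions of transcription factors, joined at the N-terminus, were expressed in E. coli BL21-CodonPlus and isolated on Ni–NTA. They were incubated at 200 nM for 1 h at 25 °C on a custom Agilent array, double-stranded and BSA-blocked, in PBS with 2% BSA, salmon testes DNA and 50 µM zinc acetate. The binding signal is per-feature fluorescence intensity (arbitrary units) read on an Axon 4000B scanner after washing.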

Point of comparison: “TAAAGCTTTATATAGCTGGCCCGCTGACTTTTTTATATATCGGAGTCACCTAGTGCAG”, binding signal 9020 fluorescence intensity (a.u.). Against it:
- GTGGACAAGGACTGGGGTGCTGGGTCATCAGATGATTTGACGGAGTCACCTAGTGCAG — lower, 8470 fluorescence intensity (a.u.)
- CTCCTTTTTCTCTCTCTGATGAATGGTCTCTTTAATTTTACGGAGTCACCTAGTGCAG — lower, 8300 fluorescence intensity (a.u.)
- ACTCACATACACACACACTCGATCTTGTGCCTCTGCAGCACGGAGTCACCTAGTGCAG — lower, 8240 fluorescence intensity (a.u.)
- CCGGCCGCGCGCTCCTTTTCTAGCGCACGTTAGAAGCTTCCGGAGTCACCTAGTGCAG — lower, 8230 fluorescence intensity (a.u.)
- CTATCCATCTACTGCAGTTTGCTCACTGGAAATGTTTTTCCGGAGTCACCTAGTGCAG — higher, 12000 fluorescence intensity (a.u.)
- ACCCGACTCTCTACACTCTAAGTCTCTAGTCTCTACACGACGGAGTCACCTAGTGCAG — higher, 9720 fluorescence intensity (a.u.)
- CGCGTGCATTTGCATCGTCGTTGTGTCATGTCGTCAAGCTCGGAGTCACCTAGTGCAG — lower, 8880 fluorescence intensity (a.u.)
- GCACGCATGTGCCCACCCTGTCTGTCCCGATGTCCGTGGACGGAGTCACCTAGTGCAG — lower, 8650 fluorescence intensity (a.u.)
- TGTATTAGCACTTTATGTCTGGTCCCATCTATTTTTTAATCGGAGTCACCTAGTGCAG — higher, 9920 fluorescence intensity (a.u.)
- GCTATGGGTGTCTGGGTTGAATTGTTTATTTCCATAGAATCGGAGTCACCTAGTGCAG — lower, 8880 fluorescence intensity (a.u.)
- AGGTGGAGGCGCCGGTGTGGGTGGTGGAGCGGGAGGAGGTCGGAGTCACCTAGTGCAG — lower, 8610 fluorescence intensity (a.u.)
- AATTAGCCGCAACTTCGACTGGTCAGTTCTCACTATCGATCGGAGTCACCTAGTGCAG — higher, 9930 fluorescence intensity (a.u.)
- ATCGGTGTTGACCTCCATATGCTGATCAGGCCCCATTTCCCGGAGTCACCTAGTGCAG — lower, 8140 fluorescence intensity (a.u.)
- TCACACGGTTTTCGGTTGATGCCATGGTAACCGTCTTGCTCGGAGTCACCTAGTGCAG — lower, 8570 fluorescence intensity (a.u.)
- CCGTTGCTCCCGTGCTCCCTGCGCGCCGCCATGTCCGCTCCGGAGTCACCTAGTGCAG — higher, 9990 fluorescence intensity (a.u.)
- CACCTGGACTTGGATCATCACCTTAAGGTAATGCATACTTCGGAGTCACCTAGTGCAG — lower, 8650 fluorescence intensity (a.u.)
- GGAGTGGGATGGCTCATTTGTCGACAGCTCCGCCACGAGGCGGAGTCACCTAGTGCAG — higher, 10500 fluorescence intensity (a.u.)
- TTAGGTTTTGTTGATTTATTGCGTGATGATTTTATAGAAACGGAGTCACCTAGTGCAG — lower, 8990 fluorescence intensity (a.u.)
- AATTTTGATAAATTTTGCATGGTTTTGTACGGTTTTTCACCGGAGTCACCTAGTGCAG — lower, 8080 fluorescence intensity (a.u.)
- TATGTAGTTCTATTTAGGCCATATCACATCAATTATTTTTCGGAGTCACCTAGTGCAG — lower, 8360 fluorescence intensity (a.u.)
- CTTCACTCCACATCTGTTTCCATCGCGAGCCACAGAGAGACGGAGTCACCTAGTGCAG — lower, 8900 fluorescence intensity (a.u.)
- TTCGGCTCAGCCTGTAACATCTCGAACAGTCTCGTGCCCGCGGAGTCACCTAGTGCAG — higher, 9110 fluorescence intensity (a.u.)
- GGTTTGGGCTGGAGTGGATGCGGGTTGGCCTGTGAAGACTCGGAGTCACCTAGTGCAG — higher, 10100 fluorescence intensity (a.u.)
- GGATTTTAGTTTTTTGTTTTCAGTGGGATCTGGTTCATTGCGGAGTCACCTAGTGCAG — higher, 9630 fluorescence intensity (a.u.)
- GAATGCGCCCGCCCAAACACCTTACTCCTATAGCTGCATCCGGAGTCACCTAGTGCAG — higher, 9140 fluorescence intensity (a.u.)
- CCATTCAAACGGTCATCATCGTCATCTATATCTATACTAACGGAGTCACCTAGTGCAG — lower, 8310 fluorescence intensity (a.u.)
- TGCTTCCGCCACCGCCACCGCCCAACGACCAGCAGCAAGCCGGAGTCACCTAGTGCAG — higher, 10200 fluorescence intensity (a.u.)
- CCTTCTCTCACACACACTTTTTCTTCCTTCCCACTTTGCACGGAGTCACCTAGTGCAG — higher, 9700 fluorescence intensity (a.u.)
- AATAGTTCATGCGTTTATATCTGCGTGTCTTTTTCAGCTCCGGAGTCACCTAGTGCAG — higher, 9190 fluorescence intensity (a.u.)
- TGTTTCTCGGCTTCCGCTACACGCCTCGCCGACCACCATGCGGAGTCACCTAGTGCAG — higher, 13100 fluorescence intensity (a.u.)
- ATGGAATCGATCACCTGCAATGCAACACCGTGCCATAATCCGGAGTCACCTAGTGCAG — lower, 8520 fluorescence intensity (a.u.)
- CGTCGCTTGGGGTGGTGTTGGTGGTTCTGAATTTTGATTGCGGAGTCACCTAGTGCAG — higher, 19200 fluorescence intensity (a.u.)
- TTTCAATTAATTTTCTGCAGTCGTACATACTTGCGTTTCTCGGAGTCACCTAGTGCAG — higher, 11400 fluorescence intensity (a.u.)
- ACTGCAGTTATTACCAATTCTCTGCGCTGTGGTTGATCCACGGAGTCACCTAGTGCAG — lower, 8090 fluorescence intensity (a.u.)
- TGGCTTTGGTTTTGGTTTGGTAAATTGGTTGCGTGTGCGTCGGAGTCACCTAGTGCAG — lower, 8570 fluorescence intensity (a.u.)
- AAAGACACACCTTTCAACTTTCACCTTTTTACCACTTCAACGGAGTCACCTAGTGCAG — lower, 8060 fluorescence intensity (a.u.)
- CGCCTCCGCTTGCCGCTGCAGCTGCACTCGCCGACACCCGCGGAGTCACCTAGTGCAG — lower, 8070 fluorescence intensity (a.u.)
- CAATAATTCTGCCCCTTGTCCGCACGCACGCGCCCAGCTCCGGAGTCACCTAGTGCAG — lower, 8640 fluorescence intensity (a.u.)
- CTTCATACTTGCTTCACCTGGCTCAGGGCCTCTGGCGCTCCGGAGTCACCTAGTGCAG — lower, 8720 fluorescence intensity (a.u.)
- GCGGTTGGGTTTGTGTGGTTTTTTTTGAAGGCGGAGTTGTCGGAGTCACCTAGTGCAG — higher, 12100 fluorescence intensity (a.u.)
- GCTTCACTCATAGATGGTCACAATTTTCTCCAGAAGTTAACGGAGTCACCTAGTGCAG — lower, 8940 fluorescence intensity (a.u.)
- GGTTAATCTCGTTTTACGTATCTTCTCAATCACCTCTTCACGGAGTCACCTAGTGCAG — higher, 10500 fluorescence intensity (a.u.)
- ACTAGCCTGGAGCTTCTTCTTATGCTTCATCTGTTCTTCTCGGAGTCACCTAGTGCAG — higher, 10800 fluorescence intensity (a.u.)
- CCATTGCCGACTCTCTTCCTCGCTTCCGGCCGACGGCCGCCGGAGTCACCTAGTGCAG — higher, 9550 fluorescence intensity (a.u.)
- CTTACTTTACCATTGCGGGTGCTCTTAGAGTGTGTTCTTTCGGAGTCACCTAGTGCAG — higher, 10500 fluorescence intensity (a.u.)
- AAACACTTTCCAATGCAACACAGCTAAGCTAGTAGTACTACGGAGTCACCTAGTGCAG — lower, 8430 fluorescence intensity (a.u.)
- CAACCCATCCCACTCGCCCCTCAACCAAACACCTCTAAAACGGAGTCACCTAGTGCAG — higher, 9720 fluorescence intensity (a.u.)
- GCAACTAGATCACATAATGAGTTTTCAGTTATATTTTAACCGGAGTCACCTAGTGCAG — lower, 8200 fluorescence intensity (a.u.)
- ATTGTCCTTCGCGAACAGTGTTCACATCCATTTCATGTATCGGAGTCACCTAGTGCAG — higher, 13200 fluorescence intensity (a.u.)
- CACACAAAGAACTAGCTCTCTCACCGTCACTGATACACCGCGGAGTCACCTAGTGCAG — higher, 9390 fluorescence intensity (a.u.)
- TTCCTACATATGTGTGTACTGCGATTTTTTTTCTTCCTCACGGAGTCACCTAGTGCAG — higher, 12100 fluorescence intensity (a.u.)
- CTCTCTCTATGCCATAATATAGGCACGGTCAAACTTAGCACGGAGTCACCTAGTGCAG — lower, 8730 fluorescence intensity (a.u.)
- GACGTTCGTTCCTTGAGTTCAATCTCCGATTGGCGCGCGCCGGAGTCACCTAGTGCAG — higher, 11200 fluorescence intensity (a.u.)
